For at least one entry, the source does not settle the construct or the ends of the probe. Negatives hold for the conditions tested.
Biological target: PDGFRbeta (endogenous, U87MG / U87MGΔEGFR cells) (Homo sapiens) (UniProt P09619)
Assay: activity in cells
Conditions: 200 nM aptamer, protein on the cell surface

Sequence	functional effect of the aptamer (2'-F all pyrimidines, inhibition of PDGF-BB-induced PDGFRβ tyrosine phosphorylation at 5 min, U87MG and U87MGΔEGFR, variant of Gint4) [% inhibition]	functional effect of the aptamer (2'-F pyrimidines, no effect on PDGF-BB-induced PDGFRβ phosphorylation)
UGUCGUGGGGCAUCGAGUAAAUGCAAUUCGACA [Gint4.T]	70	–
UUCGUACCGGGUAGGUUGGCUUGCACAUAGAACGUGUCA [unrelated aptamer]	–	not active

Source: patent US20150275215
